# Assay results from the supplement of paper PMC12819154, “High-throughput peptide-centric local stability assay extends protein–ligand identification to membrane proteins, tissues and bacteria” (Nature Structural & Molecular Biology, 2025).
# Some of the results follow. Small differences around the control level are noise.
# How the values were obtained:
# UniProt Q15413 = experiment: log2 fold change of tryptic peptide abundance, ligand vs vehicle (limited proteolysis) (log2 ratio); higher = more trypsin-susceptible (destabilized); details: peptide sequence: MAPLYNLPR; peptide start residue: 3605; ligand concentration: 5 uM; sample: K562 cleared lysate
# UniProt Q16445 = experiment: as above; details: peptide sequence: LRPGFGGAVTEVK; peptide start residue: 47; ligand concentration: 5 uM; sample: K562 cleared lysate
compound,measurement,setting,value
Cc1nc(Nc2ncc(C(=O)Nc3c(C)cccc3Cl)s2)cc(N2CCN(CCO)CC2)n1 [dasatinib],log2 fold change,UniProt Q15413,-0.0605
same,log2 fold change,UniProt Q16445,-0.118
